Test: general procedure: solution-phase peptide synthesis; TBTU/HOBt
Settings: late stage modification step

Substance	step yield
Aza-Endomorphin-2 (K763)	98% yield
Aza-FSSE (K883)	two steps, 75% yield
